Results are given in words; binding and its absence hold for the method and conditions named. A result given as binding can be weak or reduced; the word gives no strength.
Molecular target: collagen (dried collagen assay; species not stated at the place)
Assay: words in the Langendorff heart example

- binding: binds
B1: SEQ ID NO: 144 (peptide)
peptide: GQWTCSGDAYTWHCNYE
modifications: disulfide between the two cysteines (cyclic)
